Assay: Dissolution test (paddle method)
Assay type: physicochemical
Method: The dissolution test was performed using a dissolution tester (708-DS Agilent Technologies Inc., Santa Clara, CA, USA) at 50 rpm and 37 ± 0.5 °C using 900 mL of pH 1.2, pH 4.0, and pH 6.8 buffer solutions and water. The test was performed according to the paddle method using the dissolution medium. […] These samples were cooled down at room temperature for 24 h. […] [14, 15]. The samples were aliquoted at 5 mL using a syringe at predetermined time intervals (5, 10, 15, 30, 45, 60, 90, and 120 min).

CC(C)c1c(C(=O)Nc2ccccc2)c(-c2ccccc2)c(-c2ccc(F)cc2)n1CC[C@@H](O)C[C@@H](O)CC(=O)O [ATR, Atorvastatin calcium trihydrate]
Dissolution rate of ATR (pH 1.2, ATR only (Figure 9a), until 120 min / final): less than 10%
Chemical stability in dissolution medium (pH 1.2, degradation to Imp-A1, Imp-H, Imp-J): unstable
Chemical stability in dissolution media (pH 4.0 and pH 6.8 media, and water): chemically stable

Source: publication PMC11675580, “Supersaturated Gel Formulation (SGF) of Atorvastatin at a Maximum Dose of 80 mg with Enhanced Solubility, Dissolution, and Physical Stability” (Gels, 2024)
